Measurements reported in PubChem BioAssay AID652272 (Drosophila RNAi Screening Center, 2013).

Test: 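Genes whose knock-down decreases or increases Hedgehog reporter output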 (primary screen)
System: Drosophila clone 8 (Cl8) cells
Knock-down reagent: long dsRNA against Drosophila genes
Read-out: 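Plate reader light from a firefly reporter under a ptc promoter fragment that responds to Hedgehog, with Renilla light as transfection reference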
Direction: firefly Hh reporter signal: higher = more ptc reporter light; Renilla reference signal: higher = more Renilla control light
Call rule: 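Called a hit if the two-replicate mean z-score lies below -2 or above +3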
Calls: active = hit: reporter lowered or raised; inactive = not a hit
In all, the deposit lists about 21,000 reagents; this is a random part of those with a known target gene and a result. Of all reagents, 503 (2.4%) are marked active. 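Raw plate light values, not normalised; calls rest on replicate z-scores that were not deposited; hits include reporter decreases as well as increases.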 A number with no mark means an inactive call. Not given: the amount of reagent, the time to read-out.

gene	amplicon	firefly Hh reporter signal, replicate 1	firefly Hh reporter signal, replicate 2	firefly Hh reporter signal, replicate 3	Renilla reference signal, replicate 1	Renilla reference signal, replicate 2
dysf	DRSC14529	6.22e5	1.42e5		29561	4118
dysf	DRSC14895	5.55e5	1.17e5		26322	3479
dysf	DRSC14896	5.23e5	1.25e5		26832	3994
dysf	DRSC14897	2.15e5 (active)	44716		15612	1961
Usp30	DRSC18265	80417	1.69e5		3072	6688
CG18480	DRSC01957	89192	75270		3732	3172
Npc1b	DRSC20488	96020	1.61e5		3478	7159
CG3632	DRSC19137	5.95e5	2.82e5		29538	6834
CG3632	DRSC19871	96570	72347		1632	1243
CG6628	DRSC10679	51424	45840	45412	4320	2620
CG10494	DRSC04072	1.11e5	71131		3958	2496
Miga	DRSC17821	75686	1.71e5		2710	6760
CG14903	DRSC15024	1.24e5	1.02e5		4290	2576
Cyp12a5	DRSC16621	4.48e5	71382		25192	1799
wapl	DRSC18851	1.26e5	93987		2864	2733
CG10175	DRSC13628	38786	1.82e5		10896	3958
CG10175	DRSC14200	8.28e5	1.61e5		44432	4322
CG11269	DRSC04094	93338	62517		2449	5718
CG7017	DRSC10762	1.14e5	1.11e5		3809	3291
CG13713	DRSC08322	81924	61692		7831	4648
CG31659	DRSC00760	1.19e5	87256		2580	2324
Rnf146	DRSC11045	89040	73932		3491	3047
CG4666	DRSC18379	1.12e5	2.92e5		3128	10733
